According to patent US20190361013A1:
Results are given in words; binding and its absence hold for the method and conditions named. For part of these data: A result given as binding can be weak or reduced; the word gives no strength. Sequences can lack the tags named with a protein. For part of these data: Binding seen in cells or lysates may run through a third protein.

Key:
His-AcH3 [1] = experiment: direct ELISA binding curve, antigen coated at 10 uM
His-AcH3 [2] = experiment: co-immunoprecipitation on anti-HA agarose, anti-His Western blot
His-H3 = experiment: as above
His-AcH3 [3] = experiment: co-immunoprecipitation on anti-HA agarose, Western blot
His-AcH3 [4] = experiment: summary of the ELISA binding curves
His-AcH3 [5] = experiment: ELISA dilution binding curve, antigen coated on solid phase

binding (His-AcH3 [1]): binds
binding (His-AcH3 [2]): binds
binding (His-H3): no binding (tested: 2 ug of antigen)
binding (His-AcH3 [3]): binds
binding (His-AcH3 [4]): binds
binding (His-AcH3 [5]): binds
B1: ScFv-58F-HA (scFv, not shown: small tags and cut ends)
scFv: DILMTQSPAIMSASPGEKVTMTCRASSSVSSSYLHWYQQKSGASPKLWIYSTSNLASGVPARFSGSGSGTSYSLTISSVEAEDAATYYCQQYSGYPWTSGGGTKLEIKRSGGSTSGSGKPGSGEGSSSTEVKVEESGGGLVQPGGSMKLSCVASGFTFSNYWMNWVRQSPEKGLEWVAEIRLKSNNYATHYAESVKGRFTISRDDSESSVYLQMNNLRAEDTGIYYCTRRNGPSSRAMDYWGQGTTVTVSS
